This data set is described as follows: Quantitative detection of spiked H2S in human serum. The following applies: for Found: human serum.

For `CCN(CC)c1ccc(-c2cc3c(s2)c(-c2ccc(OS(=O)(=O)c4ccc([N+](=O)[O-])cc4[N+](=O)[O-])cc2)cc(=O)n3C)cc1` [KF-DNBS, 4-(2-(4-(diethylamino)phenyl)-4-methyl-5-oxo-4,5-dihydrothieno[3,2-b]pyridin-7-yl)phenyl 2,4-dinitrobenzenesulfonate], the “effect of analytes present in human serum on fluorescence response to spiked H2S” value (human serum with biothiols and proteins, no additional process) was “unaffected”. For the same compound, the Found is, setting by setting: (H2S added 25 μM) 26 µM; (H2S added 50 μM) 51 µM; (H2S added 100 μM) 95 µM; (H2S added 150 μM) 163 µM.

The record behind these values is US20240158693A1, “Probe for Hydrogen Sulfide Detection, Method for Manufacturing Same, and Composition for Hydrogen Sulfide Detection, Comprising Same” (Korea Institute of Ocean Science &Technology, priority 2020, published 2024).
